According to article PMC6745501, “Plant photoreceptors and their signaling components compete for COP1 binding via VP peptide motifs” (The EMBO Journal, 2019):

Tested on: COP1 WD40 domain
Experiment: Grating-coupled interferometry (GCI) binding kinetics versus the COP1 WD40 domain
Set-up: species or system Arabidopsis
Conditions: ligand COP1 (2,000 pg/mm^2), analyte pre-monomerized by UV-B, highest concentration 2 μM, 25°C, 1:1 binding model
Method: For CRY2 activation, proteins were diluted to their final assay concentrations (as indicated in the figure legends) in Eppendorf tubes and exposed to 10 min of fluorescent light on ice.
The Creoptix WAVE system (Creoptix AG), a label‐free surface biosensor, was used to perform GCI experiments. All experiments were performed on 2PCH or 4PCH WAVEchips (quasi‐planar polycarboxylate surface; Creoptix AG). After a borate buffer conditioning (100 mM sodium borate pH 9.0, 1 M NaCl; Xantec), COP1 (ligand) was immobilized on the chip surface using standard amine‐coupling: 7 min activation [1:1 mix of 400 mM N‐(3‐dimethylaminopropyl)‐N′‐ethylcarbodiimide hydrochloride and 100 mM N‐hydroxysuccinimide (both Xantec)], injection of COP1 (10 μg/ml) in 10 mM sodium acetate pH 5.0 (Sigma) until the desired density was reached, and final quenching with 1 M ethanolamine pH 8.0 for 7 min (Xantec). […] Blank injections were used for double referencing and a dimethyl sulfoxide (DMSO) calibration curve for bulk correction. Analysis and correction of the obtained data were performed using the Creoptix WAVEcontrol software (applied corrections: X and Y offset; DMSO calibration; double referencing), and a one‐to‐one binding model or a heterogenous ligand model with bulk correction was used to fit all experiments.

Molecule	Rmax, + UV-B
UVR8^12–415: UVR8 core with C-terminus extended to include the VP peptide motif, residues 12–415 (protein, left off: His10, N-terminal, cleaved | Twin-Strep, N-terminal, cleaved) APPRKVLIISAGASHSVALLSGDIVCSWGRGEDGQLGHGDAEDRPSPTQLSALDGHQIVSVTCGADHTVAYSQSGMEVYSWGWGDFGRLGHGNSSDLFTPLPIKALHGIRIKQIACGDSHCLAVTMEGEVQSWGRNQNGQLGLGDTEDSLVPQKIQAFEGIRIKMVAAGAEHTAAVTEDGDLYGWGWGRYGNLGLGDRTDRLVPERVTSTGGEKMSMVACGWRHTISVSYSGALYTYGWSKYGQLGHGDLEDHLIPHKLEALSNSFISQISGGWRHTMALTSDGKLYGWGWNKFGQVGVGNNLDQCSPVQVRFPDDQKVVQVSCGWRHTLAVTERNNVFAWGRGTNGQLGIGESVDRNFPKIIEALSVDGASGQHIESSNIDPSSGKSWVSPAERYAVVPDETG	30.392 pg/mm^2
UVR8^12–381: UVR8 β-propeller core, residues 12–381 (protein, UniProt Q9FN03 12-381, looked up, fragment) APPRKVLIISAGASHSVALLSGDIVCSWGRGEDGQLGHGDAEDRPSPTQLSALDGHQIVSVTCGADHTVAYSQSGMEVYSWGWGDFGRLGHGNSSDLFTPLPIKALHGIRIKQIACGDSHCLAVTMEGEVQSWGRNQNGQLGLGDTEDSLVPQKIQAFEGIRIKMVAAGAEHTAAVTEDGDLYGWGWGRYGNLGLGDRTDRLVPERVTSTGGEKMSMVACGWRHTISVSYSGALYTYGWSKYGQLGHGDLEDHLIPHKLEALSNSFISQISGGWRHTMALTSDGKLYGWGWNKFGQVGVGNNLDQCSPVQVRFPDDQKVVQVSCGWRHTLAVTERNNVFAWGRGTNGQLGIGESVDRNFPKIIEALSVDG	3.394 pg/mm^2
